Values from PubChem BioAssay AID1259283 (Sanger Institute, 2017)
Shown is one part, drawn at random, of 794 reagents. In the full data, 14 (1.8%) got an active call. 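Calls reflect only viability loss without drug; drug synergy does not enter the call.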 Not all columns of the deposit are shown. Not stated in the record: the amount of reagent, the time to read-out.

Purpose: 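Kinome-wide siRNA search for kinases acting with BYL719, cetuximab or trametinib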 (primary screen)
Cells: HT115 colorectal cancer cells
Knock-down reagent: siRNA pool against human genes
Challenge: anchor drug given one day after siRNA: BYL719 at 1 µM, cetuximab at 5 µg/ml, trametinib at 10 nM, or DMSO vehicle alone
Detection: 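Per-drug synergy scores plus replicate-mean viability relative to non-targeting pool #2 wells, also expressed as a robust z-score based on control wells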
Reading the numbers: robust z-score, knock-down alone: higher = more viable cells after knock-down
Rule for the call: 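a gene counts as essential when its robust z-score with knock-down alone is below -3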
Calls: active = essential (z below -3, no drug); inactive = no change without drug

What is on record for PASK (GeneID 23178)?
robust z-score, knock-down alone: -0.731; call: inactive

What did the screen give for HIPK1 (GeneID 204851)?
robust z-score, knock-down alone: 0.789; call: inactive

How did the screen score ULK4 (GeneID 54986)?
robust z-score, knock-down alone: -1.37; call: inactive

With NME1 (GeneID 4830), how do the results read?
robust z-score, knock-down alone: 0.424; call: inactive

For IPMK (GeneID 253430), what was measured?
robust z-score, knock-down alone: 0.789; call: inactive

With CDK16 (GeneID 5127), how do the results read?
robust z-score, knock-down alone: -0.387; call: inactive

How did the screen score PRKD3 (GeneID 23683)?
robust z-score, knock-down alone: -1.03; call: inactive

What is on record for MYLK4 (GeneID 340156)?
robust z-score, knock-down alone: 0.0923; call: inactive

For BMPR1A (GeneID 657), how do the results read?
robust z-score, knock-down alone: 0.789; call: inactive

Which result is listed for PKDCC (GeneID 91461)?
robust z-score, knock-down alone: 0.169; call: inactive

What is on record for ADGRL2 (GeneID 23266)?
robust z-score, knock-down alone: 0.789; call: inactive

How did the screen score PAK6 (GeneID 56924)?
robust z-score, knock-down alone: 0.158; call: inactive

How did the screen score CAMK2N1 (GeneID 55450)?
robust z-score, knock-down alone: -0.914; call: inactive

For CERK (GeneID 64781), how do the results read?
robust z-score, knock-down alone: 0.789; call: inactive

What did the screen give for TNK2 (GeneID 10188)?
robust z-score, knock-down alone: 0.789; call: inactive

For TPD52L3 (GeneID 89882), what does the deposit list?
robust z-score, knock-down alone: 0.789; call: inactive

How did the screen score STK40 (GeneID 83931)?
robust z-score, knock-down alone: -0.0531; call: inactive

With HIPK3 (GeneID 10114), how do the results read?
robust z-score, knock-down alone: 0.55; call: inactive

For CDK4 (GeneID 1019), what was measured?
robust z-score, knock-down alone: -1.05; call: inactive

With ERN2 (GeneID 10595), what was measured?
robust z-score, knock-down alone: 0.789; call: inactive

What is on record for AMHR2 (GeneID 269)?
robust z-score, knock-down alone: 0.789; call: inactive

For MAP3K6 (GeneID 9064), how do the results read?
robust z-score, knock-down alone: -0.635; call: inactive

What is on record for EPHA4 (GeneID 2043)?
robust z-score, knock-down alone: 0.417; call: inactive

How did the screen score MKNK1 (GeneID 8569)?
robust z-score, knock-down alone: 0.789; call: inactive

With COASY (GeneID 80347), what does the deposit list?
robust z-score, knock-down alone: -2.06; call: inactive

With MYO3B (GeneID 140469), what does the deposit list?
robust z-score, knock-down alone: -0.26; call: inactive

What did the screen give for MAP2K2 (GeneID 5605)?
robust z-score, knock-down alone: 0.554; call: inactive

With KSR2 (GeneID 283455), how do the results read?
robust z-score, knock-down alone: -0.647; call: inactive

Laid out differently: 5 of the entries above
gene | robust z-score, knock-down alone | call
BMPR1A (GeneID 657) | 0.789 | inactive
PKDCC (GeneID 91461) | 0.169 | inactive
ADGRL2 (GeneID 23266) | 0.789 | inactive
PAK6 (GeneID 56924) | 0.158 | inactive
CAMK2N1 (GeneID 55450) | -0.914 | inactive
